From PMC9952942
No constants are given. Whether binding was seen depends on the method and setting. In cells and extracts the contact can be indirect. Some results given as binding are weak or reduced against the parent protein; the word gives no strength. For some assays here: Tags and fused reporters may be left off the sequences shown.

The chains behind the UniProt entries cited, without tags or fusion partners.
UniProt P14635: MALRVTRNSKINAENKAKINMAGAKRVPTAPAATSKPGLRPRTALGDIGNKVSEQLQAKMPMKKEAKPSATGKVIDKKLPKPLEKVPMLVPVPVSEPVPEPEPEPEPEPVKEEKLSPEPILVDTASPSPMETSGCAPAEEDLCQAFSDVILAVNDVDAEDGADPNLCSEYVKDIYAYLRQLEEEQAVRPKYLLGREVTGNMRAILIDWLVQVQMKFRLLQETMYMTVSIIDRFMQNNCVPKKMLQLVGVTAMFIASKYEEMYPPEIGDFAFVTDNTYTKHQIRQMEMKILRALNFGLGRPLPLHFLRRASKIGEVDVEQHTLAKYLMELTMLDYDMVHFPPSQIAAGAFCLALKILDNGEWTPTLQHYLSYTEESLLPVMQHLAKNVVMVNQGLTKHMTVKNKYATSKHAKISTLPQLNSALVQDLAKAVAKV
UniProt Q9UM11: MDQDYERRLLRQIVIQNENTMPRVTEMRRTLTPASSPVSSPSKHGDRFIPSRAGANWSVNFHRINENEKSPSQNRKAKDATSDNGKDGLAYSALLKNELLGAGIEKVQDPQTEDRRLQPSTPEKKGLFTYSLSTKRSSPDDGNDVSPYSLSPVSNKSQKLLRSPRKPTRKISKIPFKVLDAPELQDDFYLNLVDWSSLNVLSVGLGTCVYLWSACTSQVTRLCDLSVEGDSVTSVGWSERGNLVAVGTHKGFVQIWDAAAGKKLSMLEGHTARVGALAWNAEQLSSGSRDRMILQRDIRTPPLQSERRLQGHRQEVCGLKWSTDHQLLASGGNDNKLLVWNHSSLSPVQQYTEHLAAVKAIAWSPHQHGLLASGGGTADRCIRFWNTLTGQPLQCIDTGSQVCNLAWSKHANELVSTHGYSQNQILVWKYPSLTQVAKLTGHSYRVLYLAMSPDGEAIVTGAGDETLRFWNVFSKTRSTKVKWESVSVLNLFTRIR

Columns and labels:
[1] = target: Cyclin B1, endogenous (human (endogenous in PC3)) (UniProt P14635); assay: co-IP; anti-Cyclin B1 (control IgG alongside) immunoprecipitation from 0.5 mg RIPA lysate of control and Nocodazole-arrested (post-G2) PC3 cells; immunoblot with anti-HN1
[2] = target: Cdh1 (co-factor of APC/C), endogenous (human (endogenous in PC3)) (UniProt Q9UM11); assay: co-IP; anti-Cdh1 (control IgG alongside) immunoprecipitation from RIPA lysates of vector- and HM-HN1-transfected PC3 cells; immunoblot with anti-HN1

| Binder | binding [1] | binding [2] |
| --- | --- | --- |
| Hematological and neurological expressed 1 (HN1), endogenous (protein, UniProt Q9UK76 1-154) MTTTTTFKGVDPNSRNSSRVLRPPGGGSNFSLGFDEPTEQPVRKNKMASNIFGTPEENQASWAKSAGAKSSGGREDLESSGLQRRNSSEASSGDFLDLKGEGDIHENVDTDLPGSLGQSEEKPVPAAPVPSPVAPAPVPSRRNPPGGKSSLVLG | binds | – |
| HM-HN1 (HN1 ORF in pcDNA4-HisMax), transiently expressed in PC3 cells (protein, UniProt Q9UK76 1-154) MTTTTTFKGVDPNSRNSSRVLRPPGGGSNFSLGFDEPTEQPVRKNKMASNIFGTPEENQASWAKSAGAKSSGGREDLESSGLQRRNSSEASSGDFLDLKGEGDIHENVDTDLPGSLGQSEEKPVPAAPVPSPVAPAPVPSRRNPPGGKSSLVLG | – | binds |
